Assay results published in article PMC3798268, “A Minimal Nitrogen Fixation Gene Cluster from Paenibacillus sp. WLY78 Enables Expression of Active Nitrogenase in Escherichia coli”.
For at least one entry, the source does not settle the construct or the ends of the probe. For some of these results: Negatives hold for the conditions tested. For some of these results: At least one verdict was read from the data and is not stated in words by the source.

Key:
[1] = system: E. coli sigma70-RNAP holoenzyme (Escherichia coli); experiment: DNase I footprinting; settings: 10 pmol RNAP, 400 ng DNA, -35 and -10 regions protected, BSA control; footprinting: binding 30 min at 25 C, DNase I 40 s at 37 C; commercial protein; label: 5'-FAM on pfoot-up strand; probe letters rebuilt from the primers and the genome
[2] = system: sigma70 (sigmaA, RpoD) (Paenibacillus sp. WLY78); experiment: EMSA; settings: EMSA: Roche DIG Gel Shift Kit, 0.03 pmol labeled DNA, buffer not stated, recombinant protein
[3] = system: sigma70 (sigmaA, RpoD) (Paenibacillus sp. WLY78); experiment: competition with a labelled probe; settings: 2.4 pmol protein, unlabeled N1 as competitor; EMSA: Roche DIG Gel Shift Kit, 0.03 pmol labeled DNA, buffer not stated; recombinant protein; label: digoxigenin (DIG Gel Shift Kit)

## AGGAGAGCCGTATTTACGGACTCTCTTTTTTTACGTCTTGATGTTATTGAGAATATGAAATGTAACCGCGCACATGTAAAGTGTACGATATATTACTTGACGTAAAATTTGACACATATGTGAATTGAGGATAAATGTCAGGGATTTCATGGAGAAGTGAATTGACTGTATTTGTCCCTGTCTCTAAGATGTAATTATATTCCAGACAAAAACAGAGATTTATGTAAGGGAATATAACGTAGAGAGGAGGGAATGAATGGACTCTTTAGCTGATCTCTCGGAAACCCCCTTAGCATTAGAAACTCTCAGACGACATCCCTGTTATAACGAAGAGGCACATCGCTATTTTGCGCGCATTCATCTTCCAGTAGC (double strand) [nifB promoter footprinting fragment]
[1]
  binding result: binds

## GGAGAAGTGAATTGACTGTATTTGTCCCTGTCTCTAAGATGTAATTATAT (double strand) [nifB promoter 50 bp (-47 to +3)]
[2]; without core RNAP, label: digoxigenin (DIG Gel Shift Kit)
  binding result: binds
[3]
  binding result: binds

## GTACGGAGTATCCAGCTCCGTAGCATGCAAATCCTCTGG (double strand) [scrambled 39 bp DNA]
[2]
  binding result: no binding
